Assay results published in the supplement of paper PMC6078165.
The reference is the same well before dosing, and untreated signal decays as well.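 Fibroblast labels denote human fibroblasts, mainly primary ones from uterus (C12385, HUF), lung (H6013), bone (Hs27A), adrenal (HADF) and skin (WS1), plus mammary HMF and breast cancer-associated Hs343T. Cancer cells are basal-like or mesenchymal-like triple-negative breast cancer lines. A hit is a response shift exceeding 3x replicate standard deviation. The tissue of the other fibroblasts is not given here.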

Tested on: MDAMB231
Test: relative JC-1 red fluorescence (viability) vs pre-drug, coculture with fibroblast (fraction); higher = more viable cancer cells
Method: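 JC-1 labelled TNBC cells cocultured 1:1 (1,500 cells each) with CellTrace Violet stained primary or stromal fibroblasts in 384-well plates in FluoroBrite medium, treated with one of 42 anticancer drugs at 0.1, 1, 10 or 100 uM. JC-1 red fluorescence (mitochondrial integrity in cancer cells only) was read by plate reader every 8 h for 72 h. Values are normalised to each well's pre-drug value. The stock of one drug was tenfold lower, so its dose labels may be too high.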

O=C(O)C(=O)O.[NH-][C@@H]1CCCC[C@H]1[NH-].[Pt+2] [Oxaliplatin]
relative JC-1 red fluorescence
Conditions | 8 h | 16 h | 24 h | 32 h | 40 h | 48 h | 56 h | 64 h | 72 h
10 µM, coculture fibroblast: C12385 | 0.7509 | 0.73 | 0.617 | 0.615 | 0.544 | 0.506 | 0.4522 | 0.445 | 0.422
10 µM, coculture fibroblast: H6013 | 0.88828 | 0.8198 | 0.784 | 0.771 | 0.738 | 0.716 | 0.707 | 0.688 | 0.651
10 µM, coculture fibroblast: H6019 | 0.77636 | 0.736 | 0.66195 | 0.674 | 0.639 | 0.6227 | 0.578 | 0.5746 | 0.5391
10 µM, coculture fibroblast: H6076 | 0.905 | 0.809 | 0.749 | 0.716 | 0.673 | 0.628 | 0.6 | 0.579 | 0.571
10 µM, coculture fibroblast: H6231 | 0.838 | 0.8709 | 0.7945 | 0.735 | 0.683 | 0.652 | 0.605 | 0.57 | 0.542
10 µM, coculture fibroblast: HADF | 0.886 | 0.8486 | 0.808 | 0.765 | 0.723 | 0.671 | 0.652 | 0.637 | 0.588
10 µM, coculture fibroblast: HCFa | 0.898 | 0.846 | 0.808 | 0.799 | 0.758 | 0.717 | 0.688 | 0.665 | 0.619
10 µM, coculture fibroblast: HCPF | 0.841 | 0.7402 | 0.676 | 0.6362 | 0.588 | 0.537 | 0.504 | 0.4773 | 0.4569
10 µM, coculture fibroblast: HHSteC | 0.9069 | 0.86546 | 0.809 | 0.754 | 0.716 | 0.677 | 0.639 | 0.62 | 0.577
10 µM, coculture fibroblast: HMF | 0.87 | 0.794 | 0.744 | 0.7 | 0.661 | 0.617 | 0.585 | 0.561 | 0.551
10 µM, coculture fibroblast: HPFa | 0.928 | 0.89368 | 0.8299 | 0.7702 | 0.731 | 0.685 | 0.635 | 0.608 | 0.56
10 µM, coculture fibroblast: HUF | 0.851 | 0.748 | 0.704 | 0.616 | 0.5482 | 0.516 | 0.464 | 0.445 | 0.422
10 µM, coculture fibroblast: Hs5 | 0.877 | 0.811 | 0.7721 | 0.735 | 0.69 | 0.638 | 0.605 | 0.575 | 0.559
10 µM, coculture fibroblast: Hs27A | 0.906 | 0.835 | 0.795 | 0.771 | 0.725 | 0.658 | 0.666 | 0.649 | 0.608
10 µM, coculture fibroblast: Hs343T | 0.919 | 0.828 | 0.775 | 0.724 | 0.668 | 0.615 | 0.557 | 0.526 | 0.488
10 µM, coculture fibroblast: WS1 | 0.7597 | 0.721 | 0.609 | 0.599 | 0.5422 | 0.50904 | 0.47 | 0.461 | 0.425
100 µM, coculture fibroblast: C12385 | 0.774 | 0.753 | 0.644 | 0.6435 | 0.578 | 0.535 | 0.487 | 0.4785 | 0.45857
100 µM, coculture fibroblast: H6013 | 0.908 | 0.846 | 0.816 | 0.794 | 0.7523 | 0.707 | 0.681 | 0.662 | 0.615
100 µM, coculture fibroblast: H6019 | 0.775 | 0.698 | 0.655 | 0.628 | 0.586 | 0.562 | 0.506 | 0.482 | 0.444
100 µM, coculture fibroblast: H6076 | 0.88 | 0.826 | 0.79892 | 0.779 | 0.7347 | 0.6868 | 0.651 | 0.639 | 0.619
100 µM, coculture fibroblast: H6231 | 0.9142 | 0.825 | 0.756 | 0.721 | 0.664 | 0.638 | 0.6 | 0.592 | 0.572
100 µM, coculture fibroblast: HADF | 0.9002 | 0.8339 | 0.79 | 0.7651 | 0.727 | 0.679 | 0.66 | 0.65 | 0.604
100 µM, coculture fibroblast: HCFa | 0.939 | 0.887 | 0.867 | 0.837 | 0.79 | 0.737 | 0.719 | 0.693 | 0.641
100 µM, coculture fibroblast: HCPF | 0.876 | 0.772 | 0.724 | 0.709 | 0.65 | 0.613 | 0.581 | 0.553 | 0.536
100 µM, coculture fibroblast: HHSteC | 0.9437 | 0.8908 | 0.86 | 0.826 | 0.773 | 0.732 | 0.689 | 0.669 | 0.626
100 µM, coculture fibroblast: HMF | 0.909 | 0.8441 | 0.8 | 0.76 | 0.719 | 0.67 | 0.636 | 0.6 | 0.574
100 µM, coculture fibroblast: HPFa | 0.9558 | 0.9209 | 0.877 | 0.826 | 0.798 | 0.767 | 0.719 | 0.69 | 0.642
100 µM, coculture fibroblast: HUF | 0.86 | 0.749 | 0.7605 | 0.6663 | 0.607 | 0.592 | 0.5441 | 0.533 | 0.518
100 µM, coculture fibroblast: Hs5 | 0.899 | 0.813 | 0.793 | 0.756 | 0.725 | 0.677 | 0.647 | 0.626 | 0.616
100 µM, coculture fibroblast: Hs27A | 0.908 | 0.873 | 0.823 | 0.7973 | 0.759 | 0.694 | 0.723 | 0.716 | 0.672
100 µM, coculture fibroblast: Hs343T | 0.718 | 0.627 | 0.645 | 0.585 | 0.528 | 0.508 | 0.475 | 0.466 | 0.458
100 µM, coculture fibroblast: WS1 | 0.785 | 0.722 | 0.657 | 0.64 | 0.612 | 0.582 | 0.529 | 0.525 | 0.498
